In PMC8011160:
These are yes or no findings as the source states them, for the method shown. Binding calls can cover weak binding; strength is not graded here.

The chains behind the UniProt entries cited, without tags or fusion partners. Residues count along the entry.
UniProt P04985, residues 27-747: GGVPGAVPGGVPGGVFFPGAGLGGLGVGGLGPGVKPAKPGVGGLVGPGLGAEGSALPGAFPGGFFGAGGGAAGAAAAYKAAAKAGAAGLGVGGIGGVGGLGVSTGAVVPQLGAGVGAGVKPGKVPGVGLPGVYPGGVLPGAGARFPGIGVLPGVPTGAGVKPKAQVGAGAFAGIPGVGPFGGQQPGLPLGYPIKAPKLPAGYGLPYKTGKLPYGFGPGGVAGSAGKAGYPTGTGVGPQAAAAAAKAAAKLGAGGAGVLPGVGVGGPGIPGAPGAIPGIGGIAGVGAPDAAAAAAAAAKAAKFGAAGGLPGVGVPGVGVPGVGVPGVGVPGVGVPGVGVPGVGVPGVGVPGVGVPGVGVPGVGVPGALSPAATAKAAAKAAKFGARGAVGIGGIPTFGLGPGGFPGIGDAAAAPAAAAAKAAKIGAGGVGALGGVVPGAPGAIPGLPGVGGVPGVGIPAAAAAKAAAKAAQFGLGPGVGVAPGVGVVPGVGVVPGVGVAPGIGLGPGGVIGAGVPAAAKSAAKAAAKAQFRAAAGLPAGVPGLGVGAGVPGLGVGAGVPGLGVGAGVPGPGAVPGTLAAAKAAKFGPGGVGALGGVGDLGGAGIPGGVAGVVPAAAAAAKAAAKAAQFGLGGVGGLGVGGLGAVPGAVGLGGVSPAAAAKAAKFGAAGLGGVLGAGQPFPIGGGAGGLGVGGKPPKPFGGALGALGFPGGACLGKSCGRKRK

Experiments:
[1] = target: elastin (purified from bovine neck ligament) (bovine) (UniProt P04985); assay: co-sedimentation; 0.5, 1, 5 and 10 mg insoluble elastin mixed with 40 μg protein in 400 μl PBS, 60 min at 4 °C; centrifuged 20 min at 18,000 x g; supernatant (unbound) and washed pellet (bound) on 12% SDS-PAGE; both purified
[2] = target: elastin (purified from bovine neck ligament) (bovine) (UniProt P04985); assay: ELISA; host protein coated on microtiter wells (1 μg in PBS pH 7.4, overnight at 4 °C), blocked with 1% BSA; 1 μM recombinant protein, 2 h at 37 °C; detected with mouse antisera to the recombinant proteins; absorbance with BSA subtracted; both purified

With “truncated form of leptospiral immunoglobulin-like protein B (LigBC, amino acids 631-1156) (from UniProt Q72V39) (domain or fragment)” the binding [1] was “binds” and the binding [2] was “binds”.
